Laboratory results reported in the supplement of paper PMC11637464.
Where a name gives a salt, the structure may show the parent alone. The list shows a part of the results. Many values rest on one well or one pass, so single values are uncertain.

Test system: primary mouse Muller glia with Ascl1 overexpression
Assay: total cells recovered per well; higher = more cells recovered
Conditions: 10 µM

Row | SMILES | total cells recovered per well
1 | NCCNS(=O)(=O)c1ccc(Cl)c2ccncc12 [CKI 7 dihydrochloride] (collection day: 2) | 100
2 | CC1=C(C(=O)Nc2cc3cn[nH]c3cc2F)C(c2ccc(C(F)(F)F)cc2)CC(=O)N1 (stereo not given) (collection day: 2) | 66
3 | O=C(NNc1ccccc1)c1ccncc1 [PluriSln 1] (collection day: 2) | 78
4 | CCN(CC)S(=O)(=O)Nc1cccc(-c2ccc3c(NC(=O)C4CC4)n[nH]c3c2)c1 (collection day: 2) | 140
5 | Cc1ccccc1NC(=O)Nc1ccc(CC(=O)N(C)[C@@H](CC(C)C)C(=O)NCC[C@H](NC(=O)[C@@H]2CCCN2S(=O)(=O)c2cc(Cl)cc(Cl)c2)C(=O)O)cc1 (collection day: 2) | 81
6 | CC(NC(=O)C(OC(=O)C(C)NC(=O)OC(C)(C)C)C(C)C)C(=O)OC(C(=O)O)C(C)C (stereo not given) (collection day: 2) | 95
7 | CN(C)c1ccccc1CN1CCCN(Cc2ccccc2N(C)C)C1c1ccncc1 (collection day: 1) | 50
8 | NC(=O)c1ccc(-c2nc(-c3ccccn3)c(-c3ccc4c(c3)OCO4)[nH]2)cc1 (collection day: 1) | 64
9 | COc1ccn2ncc(-c3nc4[nH]nc(NC(=O)c5ccc(F)cc5)c4cc3F)c2c1 (collection day: 2) | 110
10 | CC(=O)Nc1ccc(C(=O)Nc2ccccc2N)cc1 (collection day: 1) | 67
11 | O=c1cc(N2CCOCC2)oc2c(-c3ccccc3)cccc12 (collection day: 1) | 61

Rewritten as labelled records: 3 of the compounds above.
CN(C)c1ccccc1CN1CCCN(Cc2ccccc2N(C)C)C1c1ccncc1 (collection day: 1)
  total cells recovered per well: 50
NC(=O)c1ccc(-c2nc(-c3ccccn3)c(-c3ccc4c(c3)OCO4)[nH]2)cc1 (collection day: 1)
  total cells recovered per well: 64
COc1ccn2ncc(-c3nc4[nH]nc(NC(=O)c5ccc(F)cc5)c4cc3F)c2c1 (collection day: 2)
  total cells recovered per well: 110

Test system: primary mouse Muller glia with Ascl1 overexpression
Assay: Neuronal cell count fold change vs Ascl1-only control (log2 fold change); higher = more neurogenesis
Conditions: 0.1 µM

Row | SMILES | Neuronal cell count fold change
12 | NCCNS(=O)(=O)c1ccc(Cl)c2ccncc12 [CKI 7 dihydrochloride] (collection day: 2) | 0.206
13 | CC1=C(C(=O)Nc2cc3cn[nH]c3cc2F)C(c2ccc(C(F)(F)F)cc2)CC(=O)N1 (stereo not given) (collection day: 2) | 0.206
14 | O=S(=O)(NCCNC/C=C/c1ccc(Br)cc1)c1cccc2cnccc12 [H 89 dihydrochloride] (collection day: 1) | -0.184
15 | O=C1NC(=O)c2c1c(-c1ccccc1)cc1[nH]c3ccc(O)cc3c21 (collection day: 1) | 0.164
16 | CC(NC(=O)C(OC(=O)C(C)NC(=O)OC(C)(C)C)C(C)C)C(=O)OC(C(=O)O)C(C)C (stereo not given) (collection day: 2) | -0.7
17 | CC(=O)Nc1ccc(C(=O)Nc2ccccc2N)cc1 (collection day: 1) | -0.644
18 | CNC1CCC(N(Cc2cc(-c3ccncc3)ccc2OC)C(=O)c2sc3c(F)ccc(F)c3c2Cl)CC1 (stereo not given) (collection day: 2) | 0.206
19 | c1ccc2c(-c3cnn4cc(-c5ccc(N6CCNCC6)cc5)cnc34)ccnc2c1 (collection day: 2) | 0.3
20 | CCCCCC[C@@H]([C@@H](C)O)n1cnc2c(N)ncnc21 [EHNA hydrochloride] (collection day: 1) | 0.0566
21 | CC(ONC(=O)c1cc(C(F)(F)F)cc(C(F)(F)F)c1)C(=O)Nc1ccc(Cl)cc1 (stereo not given) (collection day: 2) | 0.107
22 | CNCCC(Oc1ccc(C(F)(F)F)cc1)c1ccccc1 (stereo not given) [Fluoxetine hydrochloride] (collection day: 1) | -0.474

Same assay, conditions: 1 µM

Row | SMILES | Neuronal cell count fold change
23 | NCCNS(=O)(=O)c1ccc(Cl)c2ccncc12 [CKI 7 dihydrochloride] (collection day: 2) | 0.206
24 | CC1=C(C(=O)Nc2cc3cn[nH]c3cc2F)C(c2ccc(C(F)(F)F)cc2)CC(=O)N1 (stereo not given) (collection day: 2) | 0.107
25 | O=S(=O)(NCCNC/C=C/c1ccc(Br)cc1)c1cccc2cnccc12 [H 89 dihydrochloride] (collection day: 1) | -0.943
26 | CC(NC(=O)C(OC(=O)C(C)NC(=O)OC(C)(C)C)C(C)C)C(=O)OC(C(=O)O)C(C)C (stereo not given) (collection day: 2) | 0.3
27 | CC(=O)Nc1ccc(C(=O)Nc2ccccc2N)cc1 (collection day: 1) | -0.943
28 | CNC1CCC(N(Cc2cc(-c3ccncc3)ccc2OC)C(=O)c2sc3c(F)ccc(F)c3c2Cl)CC1 (stereo not given) (collection day: 2) | 0.107
29 | CCCCCC[C@@H]([C@@H](C)O)n1cnc2c(N)ncnc21 [EHNA hydrochloride] (collection day: 1) | -0.322
30 | CC(ONC(=O)c1cc(C(F)(F)F)cc(C(F)(F)F)c1)C(=O)Nc1ccc(Cl)cc1 (stereo not given) (collection day: 2) | -0.115
31 | CNCCC(Oc1ccc(C(F)(F)F)cc1)c1ccccc1 (stereo not given) [Fluoxetine hydrochloride] (collection day: 1) | -0.644

Same assay, conditions: 10 µM

Row | SMILES | Neuronal cell count fold change
32 | NCCNS(=O)(=O)c1ccc(Cl)c2ccncc12 [CKI 7 dihydrochloride] (collection day: 2) | -0.115
33 | CC1=C(C(=O)Nc2cc3cn[nH]c3cc2F)C(c2ccc(C(F)(F)F)cc2)CC(=O)N1 (stereo not given) (collection day: 2) | 0.107
34 | CC(NC(=O)C(OC(=O)C(C)NC(=O)OC(C)(C)C)C(C)C)C(=O)OC(C(=O)O)C(C)C (stereo not given) (collection day: 2) | 0.387
35 | CC(=O)Nc1ccc(C(=O)Nc2ccccc2N)cc1 (collection day: 1) | -4.64
